Experimental data published in article PMC8197518.
No constants are given. Whether binding was seen depends on the method and setting. In cells and extracts the contact can be indirect. Some results given as binding are weak or reduced against the parent protein; the word gives no strength. For some of these results: Tags and fused reporters may be left off the sequences shown. Each block holds one molecule with its values, some of them ahead of it.

Sequences of proteins named here, by UniProt entry; tags and fusion partners are left off.
UniProt Q01860: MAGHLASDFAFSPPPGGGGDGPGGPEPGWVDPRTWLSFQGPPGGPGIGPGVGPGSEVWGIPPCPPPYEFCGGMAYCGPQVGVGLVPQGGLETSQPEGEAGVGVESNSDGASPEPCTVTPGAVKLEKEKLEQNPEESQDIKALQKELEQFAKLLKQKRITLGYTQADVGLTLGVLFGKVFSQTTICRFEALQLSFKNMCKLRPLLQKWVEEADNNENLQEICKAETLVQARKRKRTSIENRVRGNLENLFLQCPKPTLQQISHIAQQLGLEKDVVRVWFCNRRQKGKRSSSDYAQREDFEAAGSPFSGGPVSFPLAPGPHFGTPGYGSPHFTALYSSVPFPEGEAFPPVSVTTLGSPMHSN

Experiments:
[1] = target: T1, Flag-USP3 (ubiquitin-specific protease 3) (human) (UniProt Q9Y6I4); assay: co-IP; Flag-USP3 and Myc-Oct4 co-transfected into HEK293 cells; RIPA lysate; IP with anti-Flag or anti-Myc antibody at 4 °C overnight, Protein A/G Plus Agarose beads; blot with the reciprocal antibody
T1 sequence: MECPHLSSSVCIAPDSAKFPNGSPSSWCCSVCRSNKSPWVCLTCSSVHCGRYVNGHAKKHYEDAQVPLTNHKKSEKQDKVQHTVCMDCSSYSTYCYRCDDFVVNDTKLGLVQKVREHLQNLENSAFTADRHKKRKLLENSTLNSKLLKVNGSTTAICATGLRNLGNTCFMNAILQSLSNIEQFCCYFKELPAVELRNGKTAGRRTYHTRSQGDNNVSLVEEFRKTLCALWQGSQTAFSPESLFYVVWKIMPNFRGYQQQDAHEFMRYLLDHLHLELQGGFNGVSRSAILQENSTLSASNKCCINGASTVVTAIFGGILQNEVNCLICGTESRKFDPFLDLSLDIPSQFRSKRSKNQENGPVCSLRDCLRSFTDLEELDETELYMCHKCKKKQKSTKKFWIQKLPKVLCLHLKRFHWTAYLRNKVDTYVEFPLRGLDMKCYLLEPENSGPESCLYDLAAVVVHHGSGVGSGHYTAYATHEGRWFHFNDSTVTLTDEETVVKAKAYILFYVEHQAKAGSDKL

[2] = target: T2, endogenous USP3 (ubiquitin-specific protease 3) (human (endogenous in NCCIT and hiPSCs)) (UniProt Q9Y6I4); assay: co-IP; endogenous proteins, NCCIT cells; RIPA lysate; IP with anti-USP3 antibody at 4 °C overnight, Protein A/G Plus Agarose beads; blot with anti-Oct4
T2 sequence: T1 sequence

[3] = target: T2, endogenous USP3 (ubiquitin-specific protease 3) (human (endogenous in NCCIT and hiPSCs)); assay: co-IP; endogenous proteins, human iPSCs; RIPA lysate; IP with anti-USP3 antibody at 4 °C overnight, Protein A/G Plus Agarose beads; blot with anti-Oct4
[4] = target: Myc-Oct4 (octamer-binding factor 4) (UniProt Q01860); assay: co-IP; Flag-USP3 and Myc-Oct4 co-transfected into HEK293 cells; RIPA lysate; IP with anti-Flag or anti-Myc antibody at 4 °C overnight, Protein A/G Plus Agarose beads; blot with the reciprocal antibody

binding [1]: binds
Molecule: Myc-Oct4 (octamer-binding factor 4) (from UniProt Q01860 1-360)

binding [2]: binds
binding [3]: binds
Molecule: endogenous Oct4 (octamer-binding factor 4) (from UniProt Q01860 1-360)

binding [4]: binds
B1: Flag-USP3 (ubiquitin-specific protease 3) (enzyme, UniProt Q9Y6I4 1-520)
chain: T1 sequence
